In the supplement of paper PMC10849652:
Some of the results follow.

By UniProt entry, the sequences of proteins in these tests, tags left out. Where a name states a change or a piece, a line headed by the entry shows the natural chain unless it says otherwise.
UniProt Q8IZM9: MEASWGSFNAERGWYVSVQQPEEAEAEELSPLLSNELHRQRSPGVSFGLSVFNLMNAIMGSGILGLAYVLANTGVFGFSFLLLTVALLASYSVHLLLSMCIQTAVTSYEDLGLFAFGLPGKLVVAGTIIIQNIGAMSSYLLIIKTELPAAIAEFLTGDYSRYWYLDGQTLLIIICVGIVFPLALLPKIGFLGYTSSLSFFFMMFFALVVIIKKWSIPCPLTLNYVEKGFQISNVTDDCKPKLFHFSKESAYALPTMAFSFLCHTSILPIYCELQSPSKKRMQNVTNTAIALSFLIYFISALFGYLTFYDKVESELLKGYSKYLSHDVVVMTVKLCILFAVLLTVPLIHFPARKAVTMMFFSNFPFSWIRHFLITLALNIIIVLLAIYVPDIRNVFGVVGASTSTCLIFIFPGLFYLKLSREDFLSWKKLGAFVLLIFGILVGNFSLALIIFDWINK
UniProt Q13433: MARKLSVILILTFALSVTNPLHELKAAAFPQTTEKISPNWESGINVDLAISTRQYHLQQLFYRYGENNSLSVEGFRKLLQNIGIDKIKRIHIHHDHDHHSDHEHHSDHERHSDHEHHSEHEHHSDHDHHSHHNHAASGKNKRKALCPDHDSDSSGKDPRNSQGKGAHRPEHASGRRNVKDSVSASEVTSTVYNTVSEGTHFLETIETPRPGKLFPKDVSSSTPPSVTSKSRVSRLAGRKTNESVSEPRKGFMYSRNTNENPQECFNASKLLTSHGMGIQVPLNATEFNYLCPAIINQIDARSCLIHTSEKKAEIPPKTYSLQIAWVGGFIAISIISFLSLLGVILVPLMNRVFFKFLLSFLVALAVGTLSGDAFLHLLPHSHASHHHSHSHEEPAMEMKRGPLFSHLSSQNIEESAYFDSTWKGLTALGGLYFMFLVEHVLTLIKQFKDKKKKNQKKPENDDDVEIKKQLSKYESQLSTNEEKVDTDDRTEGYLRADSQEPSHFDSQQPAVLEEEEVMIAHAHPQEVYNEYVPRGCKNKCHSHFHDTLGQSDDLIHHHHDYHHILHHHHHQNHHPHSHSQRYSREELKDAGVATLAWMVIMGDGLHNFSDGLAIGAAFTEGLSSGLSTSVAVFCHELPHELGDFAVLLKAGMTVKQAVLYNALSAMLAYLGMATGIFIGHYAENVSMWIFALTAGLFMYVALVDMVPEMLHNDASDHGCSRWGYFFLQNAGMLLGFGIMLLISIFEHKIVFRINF
UniProt A1A5C7: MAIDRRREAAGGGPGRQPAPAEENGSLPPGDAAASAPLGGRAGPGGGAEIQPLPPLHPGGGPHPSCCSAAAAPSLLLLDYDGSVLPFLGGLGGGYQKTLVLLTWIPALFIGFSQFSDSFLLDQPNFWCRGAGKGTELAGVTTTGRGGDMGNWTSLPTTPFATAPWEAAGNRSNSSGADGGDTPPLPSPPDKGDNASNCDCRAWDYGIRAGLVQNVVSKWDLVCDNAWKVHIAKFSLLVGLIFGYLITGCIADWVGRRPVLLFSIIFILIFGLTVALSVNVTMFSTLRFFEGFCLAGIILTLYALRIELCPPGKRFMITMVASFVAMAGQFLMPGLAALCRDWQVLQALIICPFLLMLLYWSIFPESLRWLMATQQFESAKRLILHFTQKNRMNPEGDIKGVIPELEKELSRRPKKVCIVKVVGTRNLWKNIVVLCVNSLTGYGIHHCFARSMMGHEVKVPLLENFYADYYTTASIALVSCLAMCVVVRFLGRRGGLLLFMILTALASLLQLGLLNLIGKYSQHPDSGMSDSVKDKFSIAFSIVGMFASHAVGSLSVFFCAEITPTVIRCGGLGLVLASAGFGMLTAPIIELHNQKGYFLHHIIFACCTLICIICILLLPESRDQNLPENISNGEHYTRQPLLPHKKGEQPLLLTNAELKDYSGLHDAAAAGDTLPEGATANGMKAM
UniProt Q3KQZ1: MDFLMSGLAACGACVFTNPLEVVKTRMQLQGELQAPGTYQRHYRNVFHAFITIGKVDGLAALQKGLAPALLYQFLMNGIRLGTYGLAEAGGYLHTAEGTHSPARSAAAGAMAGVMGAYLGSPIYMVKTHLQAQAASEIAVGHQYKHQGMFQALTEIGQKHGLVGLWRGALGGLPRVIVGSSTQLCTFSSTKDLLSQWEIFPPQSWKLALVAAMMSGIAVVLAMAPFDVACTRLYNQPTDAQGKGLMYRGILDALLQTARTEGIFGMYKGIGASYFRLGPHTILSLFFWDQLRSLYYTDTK
UniProt P50443: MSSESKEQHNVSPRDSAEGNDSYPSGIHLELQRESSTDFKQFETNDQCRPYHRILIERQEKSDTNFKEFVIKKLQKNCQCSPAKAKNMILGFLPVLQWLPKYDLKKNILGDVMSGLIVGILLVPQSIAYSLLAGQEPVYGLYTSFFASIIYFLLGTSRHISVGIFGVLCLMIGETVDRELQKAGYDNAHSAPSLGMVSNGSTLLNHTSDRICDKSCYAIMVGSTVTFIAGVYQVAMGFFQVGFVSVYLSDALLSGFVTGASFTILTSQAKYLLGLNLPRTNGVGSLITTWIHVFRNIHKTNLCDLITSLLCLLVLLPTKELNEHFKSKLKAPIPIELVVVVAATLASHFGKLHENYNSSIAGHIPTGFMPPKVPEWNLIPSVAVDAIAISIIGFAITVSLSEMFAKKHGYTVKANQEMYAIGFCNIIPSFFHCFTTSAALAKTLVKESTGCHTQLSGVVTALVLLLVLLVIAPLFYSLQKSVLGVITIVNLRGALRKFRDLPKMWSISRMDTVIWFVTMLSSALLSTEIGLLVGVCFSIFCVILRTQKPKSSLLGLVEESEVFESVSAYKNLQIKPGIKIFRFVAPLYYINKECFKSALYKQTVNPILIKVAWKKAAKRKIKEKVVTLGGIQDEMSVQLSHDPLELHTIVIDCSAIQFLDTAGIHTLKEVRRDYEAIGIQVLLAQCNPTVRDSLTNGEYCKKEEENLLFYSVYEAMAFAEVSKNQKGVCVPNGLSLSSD
UniProt Q9Y2D2: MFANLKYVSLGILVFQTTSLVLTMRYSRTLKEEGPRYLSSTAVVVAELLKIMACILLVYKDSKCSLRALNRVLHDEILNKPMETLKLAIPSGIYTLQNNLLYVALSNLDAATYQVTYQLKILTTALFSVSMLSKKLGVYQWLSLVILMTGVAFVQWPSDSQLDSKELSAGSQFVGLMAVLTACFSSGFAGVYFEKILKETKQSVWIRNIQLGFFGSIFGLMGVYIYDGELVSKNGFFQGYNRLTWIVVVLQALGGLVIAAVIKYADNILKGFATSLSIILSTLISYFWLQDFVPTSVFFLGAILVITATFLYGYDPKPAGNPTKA
UniProt Q96K37: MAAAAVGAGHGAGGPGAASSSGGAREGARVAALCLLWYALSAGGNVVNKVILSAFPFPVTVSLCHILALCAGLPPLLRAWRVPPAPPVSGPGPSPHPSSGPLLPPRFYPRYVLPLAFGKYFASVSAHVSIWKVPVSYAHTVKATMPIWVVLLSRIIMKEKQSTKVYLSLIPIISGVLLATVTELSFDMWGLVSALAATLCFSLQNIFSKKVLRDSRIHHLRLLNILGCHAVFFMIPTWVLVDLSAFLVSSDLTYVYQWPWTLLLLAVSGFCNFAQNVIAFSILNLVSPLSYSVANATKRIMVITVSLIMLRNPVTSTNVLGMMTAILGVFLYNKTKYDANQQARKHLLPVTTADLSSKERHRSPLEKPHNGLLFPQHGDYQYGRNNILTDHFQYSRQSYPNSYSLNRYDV
UniProt Q96NT5: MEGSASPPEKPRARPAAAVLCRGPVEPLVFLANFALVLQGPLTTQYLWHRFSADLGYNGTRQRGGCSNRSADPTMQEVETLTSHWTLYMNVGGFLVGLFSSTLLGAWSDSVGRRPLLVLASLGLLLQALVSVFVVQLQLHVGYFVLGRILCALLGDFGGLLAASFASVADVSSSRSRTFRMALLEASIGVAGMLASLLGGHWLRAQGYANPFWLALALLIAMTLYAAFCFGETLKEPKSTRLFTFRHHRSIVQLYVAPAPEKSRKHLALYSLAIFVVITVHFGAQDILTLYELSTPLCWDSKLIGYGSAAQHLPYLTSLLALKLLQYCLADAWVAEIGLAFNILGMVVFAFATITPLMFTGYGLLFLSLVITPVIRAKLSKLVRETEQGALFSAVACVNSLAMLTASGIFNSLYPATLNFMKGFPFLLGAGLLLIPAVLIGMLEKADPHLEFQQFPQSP
UniProt Q6J4K2: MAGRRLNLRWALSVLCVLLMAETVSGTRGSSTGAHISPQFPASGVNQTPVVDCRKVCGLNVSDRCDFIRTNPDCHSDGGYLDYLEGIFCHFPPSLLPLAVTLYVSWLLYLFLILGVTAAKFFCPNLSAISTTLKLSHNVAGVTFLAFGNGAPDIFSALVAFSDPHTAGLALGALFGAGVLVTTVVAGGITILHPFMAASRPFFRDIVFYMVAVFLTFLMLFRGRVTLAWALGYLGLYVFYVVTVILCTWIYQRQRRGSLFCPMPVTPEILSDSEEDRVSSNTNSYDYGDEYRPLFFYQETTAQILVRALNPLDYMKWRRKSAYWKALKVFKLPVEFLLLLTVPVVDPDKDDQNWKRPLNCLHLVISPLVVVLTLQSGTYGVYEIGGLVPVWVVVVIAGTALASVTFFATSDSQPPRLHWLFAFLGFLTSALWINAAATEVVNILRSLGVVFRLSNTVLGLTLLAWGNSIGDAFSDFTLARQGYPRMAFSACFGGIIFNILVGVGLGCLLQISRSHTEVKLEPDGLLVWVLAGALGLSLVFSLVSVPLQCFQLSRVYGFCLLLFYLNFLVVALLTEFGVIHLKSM
UniProt Q8IY92: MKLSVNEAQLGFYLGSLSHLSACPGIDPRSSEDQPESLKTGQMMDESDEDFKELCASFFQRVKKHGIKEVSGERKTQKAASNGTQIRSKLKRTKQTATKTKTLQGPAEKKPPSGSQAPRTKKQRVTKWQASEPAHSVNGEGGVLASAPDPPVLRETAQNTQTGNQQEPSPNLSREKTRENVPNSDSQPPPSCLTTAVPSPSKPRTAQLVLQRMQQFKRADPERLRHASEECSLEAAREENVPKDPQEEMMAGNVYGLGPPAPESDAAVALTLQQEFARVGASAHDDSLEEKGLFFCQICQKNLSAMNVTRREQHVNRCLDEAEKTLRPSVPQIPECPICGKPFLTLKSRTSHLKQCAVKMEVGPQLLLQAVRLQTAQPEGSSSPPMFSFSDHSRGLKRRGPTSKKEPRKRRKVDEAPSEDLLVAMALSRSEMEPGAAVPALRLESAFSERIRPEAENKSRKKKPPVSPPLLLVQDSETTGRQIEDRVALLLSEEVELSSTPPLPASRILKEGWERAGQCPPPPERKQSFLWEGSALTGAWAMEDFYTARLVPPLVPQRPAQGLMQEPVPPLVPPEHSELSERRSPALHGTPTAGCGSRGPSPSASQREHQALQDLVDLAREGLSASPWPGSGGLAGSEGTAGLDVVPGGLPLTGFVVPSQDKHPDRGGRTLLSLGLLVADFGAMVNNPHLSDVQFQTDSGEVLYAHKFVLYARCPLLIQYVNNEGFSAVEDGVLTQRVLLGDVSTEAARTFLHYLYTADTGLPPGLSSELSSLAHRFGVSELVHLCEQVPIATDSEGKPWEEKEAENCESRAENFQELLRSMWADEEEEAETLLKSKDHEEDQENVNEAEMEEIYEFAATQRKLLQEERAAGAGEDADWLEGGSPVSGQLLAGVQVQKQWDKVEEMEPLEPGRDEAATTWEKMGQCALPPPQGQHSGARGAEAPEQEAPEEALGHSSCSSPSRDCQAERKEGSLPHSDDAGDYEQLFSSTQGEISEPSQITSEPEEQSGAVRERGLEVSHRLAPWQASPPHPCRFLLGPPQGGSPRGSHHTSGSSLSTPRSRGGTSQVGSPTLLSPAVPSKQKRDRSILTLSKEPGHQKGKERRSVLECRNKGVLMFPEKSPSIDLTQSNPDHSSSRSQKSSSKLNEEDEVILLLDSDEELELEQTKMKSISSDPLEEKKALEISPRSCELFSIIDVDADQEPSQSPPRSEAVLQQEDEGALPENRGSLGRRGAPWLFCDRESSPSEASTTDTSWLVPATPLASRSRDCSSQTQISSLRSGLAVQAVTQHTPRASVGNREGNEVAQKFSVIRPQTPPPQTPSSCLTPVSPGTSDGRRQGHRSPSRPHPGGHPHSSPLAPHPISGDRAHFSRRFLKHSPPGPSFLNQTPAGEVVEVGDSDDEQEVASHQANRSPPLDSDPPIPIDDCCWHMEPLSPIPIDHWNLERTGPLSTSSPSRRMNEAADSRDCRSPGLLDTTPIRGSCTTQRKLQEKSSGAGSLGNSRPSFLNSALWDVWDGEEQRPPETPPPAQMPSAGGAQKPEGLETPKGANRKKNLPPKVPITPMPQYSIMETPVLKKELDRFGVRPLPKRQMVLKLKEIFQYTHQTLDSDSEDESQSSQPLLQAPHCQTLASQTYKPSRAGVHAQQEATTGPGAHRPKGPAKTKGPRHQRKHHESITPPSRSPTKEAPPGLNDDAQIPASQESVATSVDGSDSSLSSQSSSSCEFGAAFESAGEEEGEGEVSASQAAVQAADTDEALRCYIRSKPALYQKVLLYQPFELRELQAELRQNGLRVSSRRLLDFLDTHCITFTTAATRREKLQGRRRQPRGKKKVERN

Tests used:
Test in all cases: log2 fold change, soluble protein after heating vs DMSO (PISA); higher = thermal stabilisation; K562 lysate, 10 uM; active = over 0.2 and 3.5 SD of the protein, either way, in both replicates (recomputed)
[1] = compound: NC1(c2ccc(-c3nc4ccn5c(=O)[nH]nc5c4cc3-c3ccccc3)cc2)CCC1
In short: (§1)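 The values are log-two fold changes in thermal stability compared with solvent controls and come from duplicates. They were obtained by TMTpro 16plex LC-MS/MS, with channel sums equalised, on the supernatant after 21,000xg for 90 min. That supernatant came from crude K562 extract at 1 mg/mL protein treated with 10 μM compound for 30 min, heated for 3 min across 48°C-58°C, pooled and brought to 0.5% NP-40 at 4°C.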

dasatinib = compound: Cc1nc(Nc2ncc(C(=O)Nc3c(C)cccc3Cl)s2)cc(N2CCN(CCO)CC2)n1 [dasatinib]
In short: as §1

[2] = compound: Cn1cc(-c2ccc3c(c2)CCN3C(=O)Cc2cccc(C(F)(F)F)c2)c2c(N)ncnc21
In short: as §1

quisinostat = compound: Cn1cc(CNCC2CCN(c3ncc(C(=O)NO)cn3)CC2)c2ccccc21 [quisinostat]
In short: as §1

[3] = compound: NC(=O)Nc1cc(-c2cccc(F)c2)sc1C(=O)N[C@H]1CCCNC1
In short: as §1

[4] = compound: NC(=O)c1cnc(N[C@@H]2CCCC[C@@H]2N)nc1Nc1cccc(-n2nccn2)c1
In short: as §1

nilotinib = compound: Cc1cn(-c2cc(NC(=O)c3ccc(C)c(Nc4nccc(-c5cccnc5)n4)c3)cc(C(F)(F)F)c2)cn1 [nilotinib]
In short: as §1

[5] = compound: Cc1nc(Nc2n[nH]c3c2CN(C(=O)N[C@H](CN(C)C)c2ccccc2)C3(C)C)c2sccc2n1
In short: as §1

[6] = compound: Cc1ncc(-c2ccnc(Nc3ccc(S(C)(=O)=O)cc3)n2)n1C(C)C
In short: as §1

tipifarnib = compound: Cn1cncc1[C@@](N)(c1ccc(Cl)cc1)c1ccc2c(c1)c(-c1cccc(Cl)c1)cc(=O)n2C [tipifarnib]
In short: as §1

Measured: log2 fold change

SLC38A6 isoform 2 (UniProt Q8IZM9)
inactive: [1] 0.2

SLC2A4 (UniProt P14672)
inactive: dasatinib 0.041 | [2] -0.067 | quisinostat -0.066 | [3] 0.062 | [4] -0.039 | [1] 0.078

SLC39A6 (UniProt Q13433)
inactive: nilotinib 0.012 | [5] 0.018 | [6] 0.038 | quisinostat 0.082 | tipifarnib 0.019 | [3] 0 | [4] -0.042 | [1] -0.009

SLCO4A1 (UniProt Q96BD0)
inactive: nilotinib -0.006 | [5] 0.044 | [6] 0.008 | tipifarnib 0.076

SLC22A23 (UniProt A1A5C7)
inactive: dasatinib -0.017 | [2] 0.001 | quisinostat 0.056 | [3] 0.002 | [4] 0.021 | [1] 0.009

SLC41A3 isoform 9 (UniProt Q96GZ6)
inactive: nilotinib -0.019 | [5] -0.005 | [6] 0.039 | tipifarnib -0.053

SLC52A2 (UniProt Q9HAB3)
inactive: dasatinib 0.057 | [2] -0.032 | quisinostat -0.108 | [3] -0.004 | [4] -0.074 | [1] 0.045

SLC25A35 (UniProt Q3KQZ1)
inactive: quisinostat 0.051 | [3] 0.08

SLFN14 (UniProt P0C7P3)
inactive: quisinostat 0.129 | [3] 0

SLC26A2 (UniProt P50443)
inactive: dasatinib 0.077 | [2] 0.004 | quisinostat -0.072 | [3] 0.042 | [4] 0.005 | [1] 0.106

SLC9A6 isoform 2 (UniProt Q92581)
inactive: dasatinib 0.06 | [2] -0.03 | quisinostat 0.036 | [3] -0.139 | [4] 0.015 | [1] -0.038

2 successive entries from above:
SLFN14 (UniProt P0C7P3)
inactive: quisinostat 0.129 | [3] 0

SLC26A2 (UniProt P50443)
inactive: dasatinib 0.077 | [2] 0.004 | quisinostat -0.072 | [3] 0.042 | [4] 0.005 | [1] 0.106

More records:

SLC2A13 (UniProt Q96QE2)
inactive: dasatinib 0.04 | [2] -0.227 | [1] 0.048

SLC66A3 (UniProt Q8N755)
inactive: dasatinib -0.063 | [2] 0.237 | quisinostat -0.018 | [3] 0.038 | [4] 0.138

SLC35A1 (UniProt P78382)
inactive: nilotinib -0.026 | [5] 0.045 | [6] -0.022 | quisinostat -0.246 | tipifarnib -0.042 | [3] -0.082 | [1] 0.081

SLC41A1 (UniProt Q8IVJ1)
inactive: nilotinib -0.009 | [5] 0.012 | [6] 0.07 | quisinostat 0.23 | tipifarnib -0.02 | [3] -0.003 | [4] 0.014 | [1] 0.055

SLC3A2 (UniProt F5H867)
inactive: nilotinib -0.151 | [5] -0.03 | [6] -0.039 | tipifarnib -0.078 | [4] 0.06

SLC39A1 (UniProt Q9NY26)
inactive: dasatinib -0.081 | [2] 0.087 | quisinostat 0.075 | [3] -0.059 | [4] -0.221 | [1] 0.076

SLC9B2 (UniProt Q86UD5)
inactive: quisinostat -0.114 | [3] 0.409 | [4] 0.027

SLC39A13 (UniProt Q96H72)
inactive: [1] -0.018

SLC43A3 (UniProt Q8NBI5)
inactive: [4] -0.136

SLC26A11 (UniProt Q86WA9)
inactive: quisinostat -0.134 | [3] -0.132 | [1] -0.321

SLC35A3 isoform 2 (UniProt Q9Y2D2)
inactive: nilotinib 0.02 | [5] -0.001 | [6] -0.049 | quisinostat -0.241 | tipifarnib 0.069 | [3] 0 | [4] 0.019 | [1] 0.056

SLC35E1 (UniProt Q96K37)
inactive: dasatinib 0.007 | [2] 0.006 | quisinostat -0.088 | [3] 0.023 | [4] -0.013 | [1] -0.076

SLC50A1 (UniProt Q9BRV3)
inactive: dasatinib 0.035 | [2] -0.168 | quisinostat -0.147 | [3] -0.039 | [4] 0.099 | [1] -0.066

SLC44A1 (UniProt Q8WWI5)
inactive: dasatinib 0.097 | [2] -0.05

SLC35D1 (UniProt Q9NTN3)
inactive: quisinostat -0.198 | [3] -0.019

SLC46A1 (UniProt Q96NT5)
inactive: dasatinib 0.091 | [2] -0.023 | [4] -0.075 | [1] -0.02

SLC8B1 (UniProt Q6J4K2)
inactive: dasatinib 0.2 | [2] 0.094 | [4] -0.011

SLC27A6 (UniProt Q9Y2P4)
inactive: [1] -0.012

SLC25A44 (UniProt Q96H78)
inactive: [2] -0.162 | quisinostat -0.025 | [3] 0.044 | [4] 0.005 | [1] 0.363
active: dasatinib -0.539

SLC29A3 (UniProt Q9BZD2)
inactive: nilotinib 0.075 | [5] -0.015 | [6] 0.025 | quisinostat -0.129 | tipifarnib 0.098 | [3] -0.061 | [4] -0.062 | [1] -0.012

SLC23A2 (UniProt Q9UGH3)
inactive: dasatinib -0.001 | [2] -0.014 | quisinostat 0.153 | [3] 0.064 | [4] 0.033 | [1] -0.008

SLC45A4 isoform 3 (UniProt Q5BKX6)
inactive: nilotinib 0.135 | [5] -0.221 | [6] -0.062 | quisinostat -0.123 | tipifarnib 0.073 | [3] 0.025 | [4] -0.029 | [1] -0.15

SLC22A5 isoform 3 (UniProt O76082)
inactive: dasatinib 0.017 | [2] -0.038 | quisinostat 0.129 | [3] 0.129 | [4] -0.155 | [1] -0.149

SLC25A23 isoform 3 (UniProt Q9BV35)
inactive: dasatinib -0.052 | [2] -0.078 | quisinostat 0.156 | [3] 0.03 | [4] -0.403 | [1] 0.01

SLC25A28 (UniProt Q96A46)
inactive: quisinostat -0.1 | [3] 0.042

SLC9A7 (UniProt Q96T83)
inactive: quisinostat -0.251 | [3] -0.123 | [4] 0.139

SLX4 (UniProt Q8IY92)
inactive: dasatinib -0.038 | [2] -0.135 | [1] -0.032
